Source: paper PMC8036704
No constants are given. Whether binding was seen depends on the method and setting. In cells and extracts the contact can be indirect. Some binding calls cover weakened binding; strength is not graded here.

Protein sequences, listed by entry. Tags and fused reporters are not part of them.
UniProt Q09666: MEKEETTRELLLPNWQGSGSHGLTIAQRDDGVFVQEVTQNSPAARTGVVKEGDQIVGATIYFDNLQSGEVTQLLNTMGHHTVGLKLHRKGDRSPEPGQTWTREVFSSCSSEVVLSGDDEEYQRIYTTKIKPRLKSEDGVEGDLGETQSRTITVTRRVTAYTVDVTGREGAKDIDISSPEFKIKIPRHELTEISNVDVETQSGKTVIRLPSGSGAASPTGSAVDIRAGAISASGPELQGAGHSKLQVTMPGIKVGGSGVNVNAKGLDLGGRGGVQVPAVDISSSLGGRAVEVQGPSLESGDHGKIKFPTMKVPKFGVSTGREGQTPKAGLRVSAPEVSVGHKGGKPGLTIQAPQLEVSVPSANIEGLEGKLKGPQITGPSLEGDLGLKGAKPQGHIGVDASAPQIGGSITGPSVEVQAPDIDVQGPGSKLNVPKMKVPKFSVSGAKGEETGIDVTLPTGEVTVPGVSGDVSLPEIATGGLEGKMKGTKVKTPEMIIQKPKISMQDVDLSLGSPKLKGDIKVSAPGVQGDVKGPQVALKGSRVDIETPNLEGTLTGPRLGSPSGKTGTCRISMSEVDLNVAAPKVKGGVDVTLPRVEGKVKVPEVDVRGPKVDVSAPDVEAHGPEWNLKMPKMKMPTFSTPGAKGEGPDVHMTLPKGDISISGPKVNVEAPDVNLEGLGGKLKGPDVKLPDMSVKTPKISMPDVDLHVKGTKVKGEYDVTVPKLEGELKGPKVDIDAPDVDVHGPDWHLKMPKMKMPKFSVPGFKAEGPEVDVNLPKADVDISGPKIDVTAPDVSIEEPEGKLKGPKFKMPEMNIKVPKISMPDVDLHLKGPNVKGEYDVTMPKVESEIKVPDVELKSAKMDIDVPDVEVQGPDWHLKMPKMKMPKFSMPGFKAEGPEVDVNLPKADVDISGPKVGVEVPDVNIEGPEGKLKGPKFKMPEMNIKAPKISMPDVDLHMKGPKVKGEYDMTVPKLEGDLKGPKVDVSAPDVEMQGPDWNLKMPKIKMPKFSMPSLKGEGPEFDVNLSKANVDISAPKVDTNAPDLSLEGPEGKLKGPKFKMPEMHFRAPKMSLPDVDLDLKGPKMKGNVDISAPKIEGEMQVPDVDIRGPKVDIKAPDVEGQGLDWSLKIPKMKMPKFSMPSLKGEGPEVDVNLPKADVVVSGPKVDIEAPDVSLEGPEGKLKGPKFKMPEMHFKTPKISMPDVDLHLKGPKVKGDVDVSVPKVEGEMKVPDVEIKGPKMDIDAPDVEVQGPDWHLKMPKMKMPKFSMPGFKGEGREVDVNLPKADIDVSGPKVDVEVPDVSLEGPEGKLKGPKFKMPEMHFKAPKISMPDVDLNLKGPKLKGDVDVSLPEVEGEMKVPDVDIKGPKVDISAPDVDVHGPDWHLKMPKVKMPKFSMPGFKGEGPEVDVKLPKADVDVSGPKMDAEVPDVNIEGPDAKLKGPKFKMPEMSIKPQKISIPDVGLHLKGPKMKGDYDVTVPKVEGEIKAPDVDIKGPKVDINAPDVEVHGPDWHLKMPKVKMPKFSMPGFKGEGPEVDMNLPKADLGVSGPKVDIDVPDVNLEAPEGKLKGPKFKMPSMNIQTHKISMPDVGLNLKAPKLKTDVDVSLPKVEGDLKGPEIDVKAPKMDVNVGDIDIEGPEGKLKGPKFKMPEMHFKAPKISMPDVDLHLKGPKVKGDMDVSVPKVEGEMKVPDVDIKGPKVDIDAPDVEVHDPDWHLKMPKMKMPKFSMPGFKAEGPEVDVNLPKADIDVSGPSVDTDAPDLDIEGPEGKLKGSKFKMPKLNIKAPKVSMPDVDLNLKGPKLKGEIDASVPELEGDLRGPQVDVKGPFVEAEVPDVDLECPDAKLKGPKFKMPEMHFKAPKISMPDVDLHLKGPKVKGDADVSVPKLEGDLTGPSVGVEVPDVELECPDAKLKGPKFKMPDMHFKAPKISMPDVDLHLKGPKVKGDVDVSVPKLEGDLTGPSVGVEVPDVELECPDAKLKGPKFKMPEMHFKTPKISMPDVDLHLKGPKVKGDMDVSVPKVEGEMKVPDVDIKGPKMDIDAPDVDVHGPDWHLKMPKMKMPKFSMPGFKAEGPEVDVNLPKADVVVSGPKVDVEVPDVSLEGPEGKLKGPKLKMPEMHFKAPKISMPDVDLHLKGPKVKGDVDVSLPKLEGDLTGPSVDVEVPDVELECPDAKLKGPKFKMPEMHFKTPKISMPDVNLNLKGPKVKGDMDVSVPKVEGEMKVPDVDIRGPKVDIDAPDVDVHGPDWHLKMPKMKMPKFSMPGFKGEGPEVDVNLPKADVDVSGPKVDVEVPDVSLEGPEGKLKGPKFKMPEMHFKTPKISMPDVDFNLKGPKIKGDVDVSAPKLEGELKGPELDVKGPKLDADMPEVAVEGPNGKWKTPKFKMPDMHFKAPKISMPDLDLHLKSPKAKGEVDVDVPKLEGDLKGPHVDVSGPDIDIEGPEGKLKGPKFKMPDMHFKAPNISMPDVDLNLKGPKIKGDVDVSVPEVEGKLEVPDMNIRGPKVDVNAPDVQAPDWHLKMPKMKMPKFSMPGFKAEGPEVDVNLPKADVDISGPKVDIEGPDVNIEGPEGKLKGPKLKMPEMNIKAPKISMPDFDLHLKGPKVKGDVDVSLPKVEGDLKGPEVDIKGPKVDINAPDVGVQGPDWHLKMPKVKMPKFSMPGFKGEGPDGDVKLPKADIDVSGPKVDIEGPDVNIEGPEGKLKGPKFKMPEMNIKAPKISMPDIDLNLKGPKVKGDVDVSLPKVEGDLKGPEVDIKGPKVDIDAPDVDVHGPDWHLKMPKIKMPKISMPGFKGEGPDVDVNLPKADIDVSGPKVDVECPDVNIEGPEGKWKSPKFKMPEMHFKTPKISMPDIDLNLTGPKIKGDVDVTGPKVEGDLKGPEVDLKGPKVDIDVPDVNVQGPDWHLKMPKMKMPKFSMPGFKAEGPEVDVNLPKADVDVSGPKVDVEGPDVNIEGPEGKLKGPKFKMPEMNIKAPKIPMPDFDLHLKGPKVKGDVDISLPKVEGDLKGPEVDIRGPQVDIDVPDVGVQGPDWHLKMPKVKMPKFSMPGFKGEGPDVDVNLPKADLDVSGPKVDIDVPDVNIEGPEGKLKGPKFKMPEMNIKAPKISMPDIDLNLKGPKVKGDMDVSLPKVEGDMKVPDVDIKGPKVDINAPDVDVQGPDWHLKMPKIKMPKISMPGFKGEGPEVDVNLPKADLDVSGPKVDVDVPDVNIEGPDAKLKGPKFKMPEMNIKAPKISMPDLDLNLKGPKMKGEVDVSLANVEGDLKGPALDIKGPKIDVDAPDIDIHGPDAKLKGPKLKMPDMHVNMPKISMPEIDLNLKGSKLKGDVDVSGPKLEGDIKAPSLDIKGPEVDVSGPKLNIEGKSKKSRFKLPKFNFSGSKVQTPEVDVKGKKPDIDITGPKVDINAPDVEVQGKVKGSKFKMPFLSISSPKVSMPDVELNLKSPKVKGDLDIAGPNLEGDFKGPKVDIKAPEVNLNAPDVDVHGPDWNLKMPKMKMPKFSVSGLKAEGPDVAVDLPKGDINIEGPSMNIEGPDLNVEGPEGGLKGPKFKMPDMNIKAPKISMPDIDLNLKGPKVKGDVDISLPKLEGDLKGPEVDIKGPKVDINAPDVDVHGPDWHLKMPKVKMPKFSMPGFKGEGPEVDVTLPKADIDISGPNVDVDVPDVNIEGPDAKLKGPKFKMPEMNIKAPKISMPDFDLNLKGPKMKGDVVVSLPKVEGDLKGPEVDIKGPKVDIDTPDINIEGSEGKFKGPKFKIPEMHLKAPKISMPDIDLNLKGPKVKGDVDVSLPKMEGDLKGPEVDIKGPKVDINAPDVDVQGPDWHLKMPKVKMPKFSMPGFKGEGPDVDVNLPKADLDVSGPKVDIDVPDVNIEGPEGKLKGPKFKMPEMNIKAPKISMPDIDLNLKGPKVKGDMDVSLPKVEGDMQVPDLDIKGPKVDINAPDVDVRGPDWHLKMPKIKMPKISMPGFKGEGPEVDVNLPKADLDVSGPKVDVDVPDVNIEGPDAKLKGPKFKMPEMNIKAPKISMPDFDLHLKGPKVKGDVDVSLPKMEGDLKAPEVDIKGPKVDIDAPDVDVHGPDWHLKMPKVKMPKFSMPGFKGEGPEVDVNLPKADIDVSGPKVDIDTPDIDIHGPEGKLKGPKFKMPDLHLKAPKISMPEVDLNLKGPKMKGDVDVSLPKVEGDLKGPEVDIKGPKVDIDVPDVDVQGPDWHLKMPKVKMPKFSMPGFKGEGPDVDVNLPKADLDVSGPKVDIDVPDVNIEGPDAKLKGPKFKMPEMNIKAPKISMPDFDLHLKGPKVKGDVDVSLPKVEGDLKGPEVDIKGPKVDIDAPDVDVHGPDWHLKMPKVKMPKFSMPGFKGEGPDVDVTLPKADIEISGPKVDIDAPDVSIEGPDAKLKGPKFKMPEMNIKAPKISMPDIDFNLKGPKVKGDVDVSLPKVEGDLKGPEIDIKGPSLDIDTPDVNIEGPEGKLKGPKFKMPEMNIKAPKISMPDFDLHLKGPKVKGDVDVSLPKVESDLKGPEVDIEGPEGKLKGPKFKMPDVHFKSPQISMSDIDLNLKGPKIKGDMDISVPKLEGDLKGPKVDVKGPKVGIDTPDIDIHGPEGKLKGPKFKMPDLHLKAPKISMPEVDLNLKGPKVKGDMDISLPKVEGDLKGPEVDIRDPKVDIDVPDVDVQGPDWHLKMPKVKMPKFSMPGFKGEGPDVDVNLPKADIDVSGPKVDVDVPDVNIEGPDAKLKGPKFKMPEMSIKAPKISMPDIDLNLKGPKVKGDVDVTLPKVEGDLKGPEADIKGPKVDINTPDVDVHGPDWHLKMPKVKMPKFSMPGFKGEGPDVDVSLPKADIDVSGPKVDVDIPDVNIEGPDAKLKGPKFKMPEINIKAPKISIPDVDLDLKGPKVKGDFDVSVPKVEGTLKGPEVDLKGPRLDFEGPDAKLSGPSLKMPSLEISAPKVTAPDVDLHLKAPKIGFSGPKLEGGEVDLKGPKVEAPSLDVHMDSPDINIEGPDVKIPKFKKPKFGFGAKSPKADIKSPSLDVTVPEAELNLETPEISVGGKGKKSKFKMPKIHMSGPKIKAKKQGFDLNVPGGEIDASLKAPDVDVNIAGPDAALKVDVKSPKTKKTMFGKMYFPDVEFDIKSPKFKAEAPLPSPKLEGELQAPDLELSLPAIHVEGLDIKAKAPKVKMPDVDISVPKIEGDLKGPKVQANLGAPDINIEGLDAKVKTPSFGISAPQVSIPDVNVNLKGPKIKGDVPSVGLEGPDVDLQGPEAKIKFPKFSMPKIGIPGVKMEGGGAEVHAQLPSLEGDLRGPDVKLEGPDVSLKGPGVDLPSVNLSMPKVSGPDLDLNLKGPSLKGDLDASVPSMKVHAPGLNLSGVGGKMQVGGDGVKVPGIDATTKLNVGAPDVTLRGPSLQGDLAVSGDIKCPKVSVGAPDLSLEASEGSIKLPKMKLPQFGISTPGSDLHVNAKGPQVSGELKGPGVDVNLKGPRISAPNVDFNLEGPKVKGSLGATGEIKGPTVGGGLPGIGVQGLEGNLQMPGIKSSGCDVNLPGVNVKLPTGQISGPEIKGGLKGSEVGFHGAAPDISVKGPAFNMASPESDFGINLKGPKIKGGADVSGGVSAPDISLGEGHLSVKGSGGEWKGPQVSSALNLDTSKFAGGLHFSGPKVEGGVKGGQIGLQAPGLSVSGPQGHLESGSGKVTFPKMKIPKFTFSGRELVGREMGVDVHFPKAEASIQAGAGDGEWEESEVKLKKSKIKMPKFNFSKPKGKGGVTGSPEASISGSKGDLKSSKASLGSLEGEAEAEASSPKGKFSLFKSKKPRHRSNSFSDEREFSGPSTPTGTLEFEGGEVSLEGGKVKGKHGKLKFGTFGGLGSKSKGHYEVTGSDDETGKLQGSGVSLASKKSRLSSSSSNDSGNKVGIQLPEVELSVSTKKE

Molecular target: AHNAK (human (endogenous in UCB CD34+ cells)) (UniProt Q09666)
Assay: proximity ligation; Duolink in situ PLA on fixed, permeabilised UCB CD34+ cells (cytospin); endogenous AHNAK with ANXA2 or PLEC; negative control without primary antibody; confocal microscopy

binding: binds
Substance: PLEC (from UniProt Q15149 1-4684)
